According to patent US20250000877A1, “COMPOSITION CONTAINING TAURODEOXYCHOLIC ACID OR PHARMACEUTICALLY ACCEPTABLE SALT THEREOF AS ACTIVE INGREDIENT FOR PREVENTING OR TREATING VIRAL INFECTIOUS DISEASES” (SHAPERON INC., priority 2021, published 2025):
At least one structure is not confirmed: it was looked up by name or label, or the drawing left a doubt.

System: influenza virus CA04 (human H1N1)
Experiment: Lung lesions / histopathological scoring in influenza virus-infected animal model
Assay type: in vivo, mice
Procedure: Specifically, female BLAB/C mice aged 7 weeks were purchased and allowed to acclimate for one week before the experiments commenced. The experimental animals were housed under conditions of 22±2° C. temperature, 55±5% relative humidity, and a 12-hour light-dark cycle. Water was provided ad libitum, and sterilized feed was freely accessible.
Next, as shown in the schematic diagram of FIG. 1, influenza virus CA04 (human H1N1) was intranasally inoculated at a concentration of 2LD50 (30 μl/mouse), and the drug was administered by dividing into four groups as shown in [Table 1] below. The positive control group was administered dexamethasone, an anti-inflammatory drug, as a drug, and the experimental group was administered HY209 as a low dose (1 mpk) or a high dose (4 mpk) as a drug. The drug was administered intraperitoneally at a dose of 100 μl/mouse on the third day after virus infection. […]
Specifically, each of the test groups of Example 1 was autopsied on the 7th day (7 dpi), 10th day (10 dpi), and 11th day (11 dpi) of viral infection, and then the lungs were separated. The separated lung lesions were visually confirmed (FIGS. 3a to 3c), and lung lesions were scored according to the pathological scoring criteria of Table 2 below, and then graphed (FIGS. 4a and 4b).

With `C[C@@H]1C[C@H]2[C@@H]3CCC4=CC(=O)C=C[C@]4(C)[C@@]3(F)[C@@H](O)C[C@]2(C)[C@@]1(O)C(=O)CO` [dexamethasone, reference compound] the “reduction in pathological scores compared to the virus infection group (G1)” value (7 dpi, 1 mpk (G2), P=0.046) was “statistically significant reduction” and the “reduction in pathological scores compared to the virus infection group (G1)” value (11 dpi, 1 mpk (G2 P=0.002, G3 P=0.013)) was “statistically significant reduction”.
